# Article PMC11967833
# By UniProt entry, the sequences of proteins in these tests, tags left out.
# UniProt Q01082: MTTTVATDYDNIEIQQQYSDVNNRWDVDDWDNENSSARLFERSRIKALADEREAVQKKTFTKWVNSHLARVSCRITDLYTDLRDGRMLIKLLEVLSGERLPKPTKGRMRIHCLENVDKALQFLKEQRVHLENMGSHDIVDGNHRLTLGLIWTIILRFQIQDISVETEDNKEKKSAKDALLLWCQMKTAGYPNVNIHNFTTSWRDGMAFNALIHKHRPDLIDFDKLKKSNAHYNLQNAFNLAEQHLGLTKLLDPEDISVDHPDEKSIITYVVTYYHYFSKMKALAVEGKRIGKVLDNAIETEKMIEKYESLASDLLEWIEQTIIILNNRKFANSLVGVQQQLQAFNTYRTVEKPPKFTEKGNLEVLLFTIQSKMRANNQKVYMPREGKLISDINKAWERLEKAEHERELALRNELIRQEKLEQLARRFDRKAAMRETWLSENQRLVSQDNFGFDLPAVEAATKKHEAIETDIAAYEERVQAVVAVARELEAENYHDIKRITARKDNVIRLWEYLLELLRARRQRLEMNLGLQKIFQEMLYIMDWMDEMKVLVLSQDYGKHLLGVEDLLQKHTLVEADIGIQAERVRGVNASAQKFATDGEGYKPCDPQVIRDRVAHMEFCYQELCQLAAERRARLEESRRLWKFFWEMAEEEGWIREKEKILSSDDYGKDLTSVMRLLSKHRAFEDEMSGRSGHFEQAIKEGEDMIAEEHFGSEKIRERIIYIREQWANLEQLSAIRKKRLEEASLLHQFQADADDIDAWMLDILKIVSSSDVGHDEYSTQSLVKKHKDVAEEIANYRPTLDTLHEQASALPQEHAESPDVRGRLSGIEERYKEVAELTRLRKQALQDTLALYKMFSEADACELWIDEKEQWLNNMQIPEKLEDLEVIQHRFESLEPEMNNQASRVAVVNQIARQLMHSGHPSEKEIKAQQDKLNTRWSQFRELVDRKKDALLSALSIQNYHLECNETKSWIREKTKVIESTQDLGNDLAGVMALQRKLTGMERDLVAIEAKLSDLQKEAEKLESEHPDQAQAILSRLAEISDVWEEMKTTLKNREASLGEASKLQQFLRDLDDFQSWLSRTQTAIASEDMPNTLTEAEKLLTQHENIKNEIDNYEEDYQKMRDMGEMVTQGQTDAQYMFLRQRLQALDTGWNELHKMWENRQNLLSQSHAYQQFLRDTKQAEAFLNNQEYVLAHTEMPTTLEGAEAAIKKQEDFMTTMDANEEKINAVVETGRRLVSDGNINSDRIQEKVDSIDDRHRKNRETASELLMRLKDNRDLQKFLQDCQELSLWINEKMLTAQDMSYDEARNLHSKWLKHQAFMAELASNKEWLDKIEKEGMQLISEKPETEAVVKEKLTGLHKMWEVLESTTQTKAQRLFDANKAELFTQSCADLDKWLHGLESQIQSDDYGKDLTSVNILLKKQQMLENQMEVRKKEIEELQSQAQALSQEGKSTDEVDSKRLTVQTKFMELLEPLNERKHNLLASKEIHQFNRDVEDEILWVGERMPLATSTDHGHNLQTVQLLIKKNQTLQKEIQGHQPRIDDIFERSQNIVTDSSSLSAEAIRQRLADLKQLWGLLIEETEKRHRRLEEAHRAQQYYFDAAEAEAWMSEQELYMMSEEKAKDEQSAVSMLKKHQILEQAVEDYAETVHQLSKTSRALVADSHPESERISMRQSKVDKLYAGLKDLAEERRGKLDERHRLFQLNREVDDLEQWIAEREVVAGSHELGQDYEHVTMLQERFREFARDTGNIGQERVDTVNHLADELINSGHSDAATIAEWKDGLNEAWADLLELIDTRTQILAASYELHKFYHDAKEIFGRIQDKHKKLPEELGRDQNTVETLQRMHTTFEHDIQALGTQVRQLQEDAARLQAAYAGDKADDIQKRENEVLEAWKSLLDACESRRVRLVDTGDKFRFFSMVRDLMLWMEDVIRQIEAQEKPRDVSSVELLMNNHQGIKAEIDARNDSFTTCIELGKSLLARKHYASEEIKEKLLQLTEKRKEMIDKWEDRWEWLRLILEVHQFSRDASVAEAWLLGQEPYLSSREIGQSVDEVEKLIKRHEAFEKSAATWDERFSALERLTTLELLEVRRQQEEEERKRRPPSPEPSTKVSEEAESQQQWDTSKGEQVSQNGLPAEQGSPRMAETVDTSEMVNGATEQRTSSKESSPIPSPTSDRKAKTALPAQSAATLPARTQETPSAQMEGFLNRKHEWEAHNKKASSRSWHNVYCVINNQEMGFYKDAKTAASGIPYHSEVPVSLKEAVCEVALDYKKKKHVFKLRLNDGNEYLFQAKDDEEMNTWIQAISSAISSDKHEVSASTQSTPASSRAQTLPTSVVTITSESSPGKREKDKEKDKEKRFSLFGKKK
# UniProt P35222: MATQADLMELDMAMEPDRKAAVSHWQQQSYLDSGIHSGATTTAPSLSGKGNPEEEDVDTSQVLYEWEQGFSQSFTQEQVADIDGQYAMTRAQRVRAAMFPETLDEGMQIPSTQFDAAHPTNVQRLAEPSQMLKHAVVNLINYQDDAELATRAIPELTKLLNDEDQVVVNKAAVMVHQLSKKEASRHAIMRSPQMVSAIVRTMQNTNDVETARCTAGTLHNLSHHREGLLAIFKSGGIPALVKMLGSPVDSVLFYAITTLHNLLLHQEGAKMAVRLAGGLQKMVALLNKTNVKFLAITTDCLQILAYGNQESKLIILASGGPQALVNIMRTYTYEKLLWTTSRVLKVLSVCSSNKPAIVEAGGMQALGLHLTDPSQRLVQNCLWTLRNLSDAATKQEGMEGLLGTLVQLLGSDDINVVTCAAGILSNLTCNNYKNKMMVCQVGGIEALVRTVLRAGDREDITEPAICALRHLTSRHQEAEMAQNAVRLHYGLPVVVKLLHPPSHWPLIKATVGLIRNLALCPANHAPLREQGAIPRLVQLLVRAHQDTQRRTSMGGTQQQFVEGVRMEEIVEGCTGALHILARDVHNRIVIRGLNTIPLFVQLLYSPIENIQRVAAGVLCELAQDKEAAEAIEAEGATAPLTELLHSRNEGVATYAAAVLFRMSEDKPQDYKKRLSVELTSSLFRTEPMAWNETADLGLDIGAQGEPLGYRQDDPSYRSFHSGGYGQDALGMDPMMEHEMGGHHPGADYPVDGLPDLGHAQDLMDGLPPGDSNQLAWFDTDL
# These are yes or no findings as the source states them, for the method shown. In cells and extracts the contact can be indirect. Some binding calls cover weakened binding; strength is not graded here.
# B1: P120‐catenin (protein, UniProt O60716 1-968)
# chain: MDDSEVESTASILASVKEQEAQFEKLTRALEEERRHVSAQLERVRVSPQDANPLMANGTLTRRHQNGRFVGDADLERQKFSDLKLNGPQDHSHLLYSTIPRMQEPGQIVETYTEEDPEGAMSVVSVETSDDGTTRRTETTVKKVVKTVTTRTVQPVAMGPDGLPVDASSVSNNYIQTLGRDFRKNGNGGPGPYVGQAGTATLPRNFHYPPDGYSRHYEDGYPGGSDNYGSLSRVTRIEERYRPSMEGYRAPSRQDVYGPQPQVRVGGSSVDLHRFHPEPYGLEDDQRSMGYDDLDYGMMSDYGTARRTGTPSDPRRRLRSYEDMIGEEVPSDQYYWAPLAQHERGSLASLDSLRKGGPPPPNWRQPELPEVIAMLGFRLDAVKSNAAAYLQHLCYRNDKVKTDVRKLKGIPVLVGLLDHPKKEVHLGACGALKNISFGRDQDNKIAIKNCDGVPALVRLLRKARDMDLTEVITGTLWNLSSHDSIKMEIVDHALHALTDEVIIPHSGWEREPNEDCKPRHIEWESVLTNTAGCLRNVSSERSEARRKLRECDGLVDALIFIVQAEIGQKDSDSKLVENCVCLLRNLSYQVHREIPQAERYQEAAPNVANNTGPHAASCFGAKKGKDEWFSRGKKPIEDPANDTVDFPKRTSPARGYELLFQPEVVRIYISLLKESKTPAILEASAGAIQNLCAGRWTYGRYIRSALRQEKALSAIADLLTNEHERVVKAASGALRNLAVDARNKELIGKHAIPNLVKNLPGGQQNSSWNFSEDTVISILNTINEVIAENLEAAKKLRETQGIEKLVLINKSGNRSEKEVRAAALVLQTIWGYKELRKPLEKEGWKKSDFQVNLNNASRSQSSHSYDDSTLPLIDRNQKSDKKPDREEIQMSNMGSNTKSLDNNYSTPNERGDHNRTLDRSGDLGDMEPLKGTTPLMQDEGQESLEEELDVLVLDDEGGQVSYPSMQKI
# What was measured:
# [1] = target: Spectrin beta, non‐erythrocytic 1 (SPTBN1) (human (endogenous in SNU-449 and LM3)) (UniProt Q01082); assay: co-IP; IP with anti-SPTBN1 antibody on protein A/G magnetic beads from lysates of SNU-449 and LM3 cells transfected with negative control or HCETSR (tRF); lysis buffer 20 mM Tris-HCl, 100 mM KCl, 5 mM MgCl2, 0.5% NP-40, pH 7.5; overnight at 4 °C; immunoblotting for the catenins
# [2] = target: β‐catenin (human (endogenous in SNU-449 and LM3)) (UniProt P35222); assay: co-IP; IP with anti-β-catenin antibody on protein A/G magnetic beads from lysates of SNU-449 and LM3 cells transfected with negative control or HCETSR (tRF); lysis buffer 20 mM Tris-HCl, 100 mM KCl, 5 mM MgCl2, 0.5% NP-40, pH 7.5; overnight at 4 °C; immunoblotting for α-catenin and P120-catenin
Molecule,binding [1],binding [2]
β‐catenin (from UniProt P35222 1-781),binds,
B1,binds,binds
